Test results published in PubChem BioAssay AID2685 (National Center for Advancing Translational Sciences (NCATS), 2010).
Several values for one entry are separate records, joined by “and”; a condition that tells them apart may be missing. Identical values can stand only once. Some of the results follow. Shown are side measurements of this screen, not its main read-out; they come without a call. The list favours compounds with an active or inconclusive main result. The note in brackets gives the kind of curve behind each potency; many fits are weak.

Assay: qHTS Assay for Lipid Storage Modulators in Drosophila S3 Cells;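 for cell number change: cells counted by Cell Tracker Red CMTPX staining in the red channel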
Settings: BODIPY lipid droplet fluorescence, 18-24 h; for cell number change: measured here: cell count max response, cells fed with added oleic acid
Procedure, shortened: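 Drosophila S3 cells loaded with oleic acid (400 uM, as added) and compounds at several concentrations; lipid droplets imaged by 488-nm laser-scanning cytometry, 500–530 nm intensity and object ratio to cell channel. Percent activity normalized to 20 uM Triacsin C.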

[1] = measured here: lipid fluorescence (Fed channel) AC50, cells fed with added oleic acid
[2] = measured here: cell number channel AC50, cells fed with added oleic acid

What does the source list for CCn1cc(C(=O)NCc2cccnc2)c(=O)c2cc(F)c(N3CCN(C(=O)c4ccco4)CC3)cc21?
cell number change: 14.9%; AC50 [1]: 6.51 µM [rising, single point]

Which results are given for COCCC(=O)NC1CCCc2c1cnn2-c1cccc(C)c1C (stereo not drawn)?
cell number change: -12.5%; AC50 [1]: 29.1 µM [falling, single point]

Which cell number change does the source give for Cc1[nH]c(=O)[nH]c(=O)c1S(=O)(=O)N1CCN(c2ccccc2)CC1 here?
Its cell number change is -2.97%.

And the AC50 [1]?
Its AC50 is 20.6 µM [falling, single point].

For CC(=O)Oc1ccc(/C=N\NC(=O)c2cc3c(ccc4ccccc43)o2)cc1, which cell number change is on record?
Its cell number change is -1.36%.

For Cc1ccnc(NC(=O)CC(c2ccccc2)c2ccccc2)n1, which cell number change is on record?
Its cell number change is 26.4%.

What about the AC50 [1] of the same molecule?
The AC50 was 0.1 µM [rising, full curve, poor fit].

Which cell number change does the source give for O=C(CCNS(=O)(=O)c1ccccc1)N1CCN(C(c2ccccc2)c2ccccc2)CC1 here?
The cell number change was 45.8%.

What about the AC50 [2] of the same molecule?
Its AC50 is 25.9 µM [rising, partial curve, poor fit].

And the AC50 [1]?
The AC50 was 6.51 µM [rising, single point].

Which cell number change does the source give for CN(C(=O)c1ccccc1)c1ccccc1C(=O)NCCc1ccccc1 here?
Its cell number change is 26.5%.

Which cell number change does the source give for CN(C)S(=O)(=O)c1cccc(NC(=O)c2n[nH]c(=O)c3ccccc23)c1 here?
The cell number change was 12.6%.

Which results are given for Cc1nn(C)c(C(=O)N/N=C/c2cccc(Oc3ccccc3)c2)c1Br?
cell number change: -36.1%; AC50 [2]: 13 µM [falling, single point]

With COc1cccc(OC)c1C(=O)Nc1ccc(Br)c(C(=O)c2ccccc2)c1 as the molecule, how does the cell number change read?
Its cell number change is 41.6%.

What about the AC50 [2] of the same molecule?
Its AC50 is 1.84 µM [rising, full curve, poor fit].

With CCOc1ccc(N2C(=O)CC(NC3CCN(C(=O)c4ccc(F)cc4)CC3)C2=O)cc1 (stereo not drawn) as the molecule, how does the cell number change read?
The cell number change was 30.7%.

What about the AC50 [2] of the same molecule?
Its AC50 is 29.1 µM [rising, single point].

Which results are given for CC(C)(CNC(=O)CO/N=C1/C=C2CCC3C(C(O)C[C@@]4(C)C3CC[C@]4(O)C(=O)CO)[C@@]2(C)CC1)C(O)C(=O)O (stereo partly drawn)?
cell number change: 25%; AC50 [1]: 6.51 µM [rising, single point]

With COc1cccc(C(=O)OCC(=O)NCCCc2ccccc2)c1 as the molecule, how does the cell number change read?
Its cell number change is 14.8%.

And the AC50 [1]?
Its AC50 is 6.51 µM [rising, single point].

For CCCCN(CCCC)S(=O)(=O)c1ccc(SCC(=O)OCC)c([N+](=O)[O-])c1, which cell number change is on record?
Its cell number change is 38.3%.

What about the AC50 [2] of the same molecule?
The AC50 was 29.1 µM [rising, single point].

For CN(C)S(=O)(=O)c1ccc2nnn(OCC(=O)NC34CC5CC(CC(C5)C3)C4)c2c1, which cell number change is on record?
The cell number change was -25.8%.

And the AC50 [1]?
The AC50 was 13 µM [falling, partial curve].

With COc1cccc(CN(Cc2ccccc2F)S(=O)(=O)c2ccc(S(=O)(=O)NCc3ccccc3)cc2)c1 as the molecule, how does the cell number change read?
Its cell number change is 3.12%.

Which results are given for O=C(CSc1nc(-c2ccccc2)cs1)NC(=O)NCc1ccco1?
AC50 [2]: 5.8 µM [falling, partial curve, poor fit]; AC50 [1]: 13 µM [falling, partial curve, poor fit]

With O=S(=O)(NC1CCCCC1N1CCC(O)CC1)c1ccccc1 (stereo not drawn) as the molecule, how does the cell number change read?
The cell number change was 2.78%.

What about the AC50 [1] of the same molecule?
The AC50 was 29.1 µM [falling, single point].

For Cc1cc(-c2ccccc2)nc(Oc2cccc(C(F)(F)F)c2)c1S(C)(=O)=O, which cell number change is on record?
Its cell number change is 8.29%.

Which cell number change does the source give for CN(CC(=O)Nc1cccc(F)c1)C(=O)c1ccc(N2C(=O)c3ccccc3C2=O)cc1 here?
Its cell number change is 65.9%.

And the AC50 [2]?
The AC50 was 20.6 µM [rising, single point].

For Cc1ccc(NC(=S)Nc2ccc3[nH]c(=O)[nH]c3c2)cc1C, which cell number change is on record?
The cell number change was -33.8%.

What about the AC50 [2] of the same molecule?
The AC50 was 0.103 µM [falling, full curve, poor fit].

Which cell number change does the source give for O=C(/C=C/Nc1ccc(F)cc1)c1ccc(Oc2ncccn2)cc1 here?
The cell number change was 39.7%.

And the AC50 [2]?
The AC50 was 1.64 µM [rising, full curve, poor fit].

And the AC50 [1]?
The AC50 was 1.84 µM [rising, partial curve].

Which results are given for CC1=C(C(=O)OCc2ccccc2)C(c2cccc([N+](=O)[O-])c2)NC(=O)N1C (stereo not drawn)?
cell number change: -38.4%; AC50 [2]: 14.6 µM [falling, single point]

With CC1(C)CC(=O)c2sc(NS(=O)(=O)c3ccc(Br)cc3)nc2C1 as the molecule, how does the cell number change read?
The cell number change was -9.27%.

What about the AC50 [1] of the same molecule?
The AC50 was 0.651 µM [falling, partial curve, poor fit].

With Cc1ccc(OCCCNC2CCCC2)cc1 as the molecule, how does the cell number change read?
Its cell number change is 96.1%.

And the AC50 [2]?
The AC50 was 29.1 µM [rising, single point].

And the AC50 [1]?
The AC50 was 16.4 µM [rising, partial curve].

With NS(=O)(=O)c1ccc(Nc2nc(-c3cccnc3)cs2)cc1 as the molecule, how does the cell number change read?
The cell number change was -17.3%.

What about the AC50 [1] of the same molecule?
Its AC50 is 0.461 µM [rising, single point].

For Cc1ccc(S(=O)(=O)N(C)C)cc1NC(=O)CN1C(=O)NC2(CCCc3ccccc32)C1=O (stereo not drawn), which AC50 [1] is on record?
Its AC50 is 1.46 µM [rising, partial curve].

Which cell number change does the source give for COc1ccc2cc(S(=O)(=O)N3CCOCC3)ccc2c1 here?
The cell number change was 42.6%.

What about the AC50 [2] of the same molecule?
Its AC50 is 29.1 µM [rising, single point].

What about the AC50 [1] of the same molecule?
Its AC50 is 29.1 µM [rising, single point].

For O=C(CN1C(=O)CC(c2ccccc2)=Nc2ccccc21)NC1CCCCC1, which cell number change is on record?
The cell number change was -20%.

And the AC50 [1]?
Its AC50 is 0.0146 µM [falling, full curve, poor fit].

For O=C(O)c1c(Cl)nc2ccccn12, which AC50 [1] is on record?
The AC50 was 2.59 µM [falling, full curve].

With CC(C)OC(=O)CSc1nnc2c(n1)[nH]c1ccc(F)cc12 as the molecule, how does the cell number change read?
Its cell number change is 10.5%.

What about the AC50 [1] of the same molecule?
The AC50 was 16.4 µM [rising, single point].

What does the source list for COc1ccc(CCNC(=O)CSc2nc(-c3ccco3)cc(C(F)(F)F)n2)cc1OC?
cell number change: 13.5%; AC50 [1]: 1.84 µM [rising, partial curve]

For COc1cc2c(cc1OC)CN(C(=O)/C=C/c1ccc(F)cc1)CC2, which cell number change is on record?
Its cell number change is 8.82%.

Which cell number change does the source give for CCCCCn1c(SCCOCC)nc2c1c(=O)[nH]c(=O)n2C here?
Its cell number change is 32.6%.

Which cell number change does the source give for Cc1nc(SCC(=O)NCc2ccco2)c2c3c(sc2n1)CCCC3 here?
The cell number change was -23.8%.

What does the source list for Cc1ccsc1/C=C1\SC(=S)N(CC2CCCO2)C1=O (stereo not drawn)?
cell number change: -29.3%; AC50 [2]: 0.517 µM [falling, partial curve, poor fit]; AC50 [1]: 25.9 µM [falling, partial curve, poor fit]

Which results are given for O=C(Oc1ccccc1)N1CCOCC1?
cell number change: 0.794%; AC50 [1]: 0.13 µM [falling, full curve]

With CN(C)CCCNCCCNC(=O)c1ccccn1 as the molecule, how does the cell number change read?
Its cell number change is -8.12%.

Which cell number change does the source give for CCN1C(=NCCCCO)N[C@@H](c2cccc(C(F)(F)F)c2)C(C(=O)OC)=C1C here?
Its cell number change is -7.78% and 16%.

Which AC50 [2] does the source give for CC(=O)Nc1ccc(-c2cn3c(n2)SCC3)cc1 here?
The AC50 was 0.366 µM [falling, partial curve, poor fit].

And the AC50 [1]?
Its AC50 is 2.06 µM [falling, partial curve, poor fit].
